Laboratory results reported in US7205002B2, “Method of making, and the use of cytotoxic agents containing elemental selenium” (MCW Research Foundation, Inc., priority 2002, dated 2007).

Test: Formation of fluorescent photoproduct-protein conjugates (fluorescence emission)
[1] = MC54-derived photoproducts with the given solvent/protein

For `CCO` [Ethanol], the Fluorescence [1] was “no”.

With `CCCCN1C(=O)C(=C/C=C/C=C2\Oc3ccccc3N2CCCS(=O)(=O)[O-])C(=O)N(CCCC)C1=S.[Na+]` [MC540] the Fluorescence (conjugates formed by photoproducts of the dye, alpha-medium supplemented with 10% fetal bovine serum) was “no”.

For “Bovine serum albumin: carrier protein for conjugates with MC54-derived photoproducts”, the Fluorescence [1] was “yes”.

For “Carboxymethylated bovine serum albumin: commercial product from Sigma Chemical Co.”, the Fluorescence [1] was “yes”.
